The source of these data is article PMC7819943, “Rice protein-binding microarrays: a tool to detect cis-acting elements near promoter regions in rice”.

By UniProt entry, the sequences of proteins in these tests, tags left out.
UniProt Q0JBA9, entry or part of it: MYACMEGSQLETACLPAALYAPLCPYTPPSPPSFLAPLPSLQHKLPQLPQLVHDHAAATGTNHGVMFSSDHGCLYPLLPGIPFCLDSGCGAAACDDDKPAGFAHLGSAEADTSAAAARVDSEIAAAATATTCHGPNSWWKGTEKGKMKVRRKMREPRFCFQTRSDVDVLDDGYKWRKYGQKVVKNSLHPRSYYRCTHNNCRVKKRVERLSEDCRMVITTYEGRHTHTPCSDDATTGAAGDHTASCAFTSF

Some of the results follow.

This assay deals with OsWRKY34 (Oryza sativa, UniProt Q0JBA9 1-250). The assay is described as follows: protein-binding microarray (RPBM); PBS, 2% BSA, 51.3 ng/ul salmon testes DNA, 50 uM zinc acetate, 200 nM TF, 25 C, 1 h; high values mean tight binding. As to conditions: protein: recombinant; tags: N-terminal polyhistidine and DsRed monomer fusion (pET32a); label: CyDye5-dUTP incorporated in the synthesized complementary strand; 3' TTTTT single-stranded linker to array surface; dsDNA, one strand shown. The gist of the method:
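Polyhistidine-tagged DsRed fusions of transcription factors, joined at the N-terminus, were expressed in E. coli BL21-CodonPlus and isolated on Ni–NTA. They were incubated at 200 nM for 1 h at 25 °C on a custom Agilent array, double-stranded and BSA-blocked, in PBS with 2% BSA, salmon testes DNA and 50 µM zinc acetate. The binding signal is per-feature fluorescence intensity (arbitrary units) read on an Axon 4000B scanner after washing.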
Take “GCCGCCTCGCCGTCGCTGTCCACTCACCGACCCGCCGCCGCGGAGTCACCTAGTGCAG”: the binding signal is 8020 fluorescence intensity (a.u.).
As for “CCTTGCCCTATCTTTGTCTTAGCGCTGTGCATCAGTGTTACGGAGTCACCTAGTGCAG”, the binding signal was 8510 fluorescence intensity (a.u.).
As for “TGAAAAACCGTGTCAGTGCCGAGTCTCAAGCCTAGCCGTCCGGAGTCACCTAGTGCAG”, the binding signal is 8080 fluorescence intensity (a.u.).
In the case of “ATTTTGGTGATTTTTGGAACATACTATTTCCGTGATGAGTCGGAGTCACCTAGTGCAG”, the binding signal was 9350 fluorescence intensity (a.u.).
As for “CCGCCATTGACGCCCAAATCTCCATGGATCAAGAGGTTCTCGGAGTCACCTAGTGCAG”, the figure is 8160 fluorescence intensity (a.u.); as for “TCTCATCATCAGAGTATGGTTTGCCCAGTTCCTCATTGACCGGAGTCACCTAGTGCAG”, 8680 fluorescence intensity (a.u.); as for “CCTGACGTGCTTCACCTCACCTGCTCATTTTTTATTTCCCCGGAGTCACCTAGTGCAG”, 17300 fluorescence intensity (a.u.).
In the case of “GAGGGAGTGTGGACGTCTGATTTTCTTTTCACTTAATATTCGGAGTCACCTAGTGCAG”, the binding signal was 11600 fluorescence intensity (a.u.).
“CTACAGCGTTAAAATCGATTTTGGGTGGGACCCATGAAAACGGAGTCACCTAGTGCAG”: the binding signal was 9220 fluorescence intensity (a.u.).
On to “GAGGAGAGAGGGGTTGAACTGAAAAGTAGTGTTAATTAATCGGAGTCACCTAGTGCAG”, for which the binding signal is 8860 fluorescence intensity (a.u.).
As for “AAGCAGTTTCCTCCTCTCCAAACCAGGCTCATCTCCATCTCGGAGTCACCTAGTGCAG”, the figure is 10500 fluorescence intensity (a.u.); as for “AAAGGGCCTGAACCAGTATAATTCTTGTCTTTTGTTTGCTCGGAGTCACCTAGTGCAG”, 8900 fluorescence intensity (a.u.).
For the sequence “CCCATATTCCTCTAATTTCTGTGAGTAATCTATCCATAATCGGAGTCACCTAGTGCAG”, the binding signal is 9470 fluorescence intensity (a.u.).
In the case of “CATCATCCTTTTTTCCAGCCCTATCCACGACCCATCCAACCGGAGTCACCTAGTGCAG”, the binding signal was 9440 fluorescence intensity (a.u.).
As for “GTTTCGGGGAGAGGGGCAGAAGGAAAAGAGACTCCTAGCTCGGAGTCACCTAGTGCAG”, the figure is 10300 fluorescence intensity (a.u.); as for “AACATTAACCGCTCAACCACGCCATATATATTACCCTTATCGGAGTCACCTAGTGCAG”, 8590 fluorescence intensity (a.u.).
As for “CCTATATTGGGTTCGTTGGTTTGTAGGGAGGTAGGTAAAACGGAGTCACCTAGTGCAG”, the figure is 10700 fluorescence intensity (a.u.).
Turning to “TCACCCATCCACCTCGTCGACTAGTCCCGTCGTCCGTGACCGGAGTCACCTAGTGCAG”, the binding signal was 10200 fluorescence intensity (a.u.).
In the case of “CTCTGGTCCAATCAAATGGTCATTCCTGTGTTTTTCCTGTCGGAGTCACCTAGTGCAG”, the binding signal is 12000 fluorescence intensity (a.u.).
As for “GACTCCTCGCAGCTTCCTCTTGTTTTTCTTGGCCGAACCCCGGAGTCACCTAGTGCAG”, the figure is 14200 fluorescence intensity (a.u.); as for “GTGTTTGAGTTGGATTATACGCTCGTTTGCTTTTGGAAATCGGAGTCACCTAGTGCAG”, 8880 fluorescence intensity (a.u.).
As for “CCGCTGGAGCTTCCCGAACATGACCTCGTACGCCGGCACCCGGAGTCACCTAGTGCAG”, the figure is 8150 fluorescence intensity (a.u.); as for “TTGCTCCGTGCTGTCCGCCCTAAACCTATACACAAGAGCACGGAGTCACCTAGTGCAG”, 8190 fluorescence intensity (a.u.).
Take “GTTGCTTGCCTACAATTCTCAGCCAATAACCACATCTCTGCGGAGTCACCTAGTGCAG”: the binding signal was 8560 fluorescence intensity (a.u.).
Consider “CGCCACCAAACCCCGAGAACAAGAAAGCTATATACCATCTCGGAGTCACCTAGTGCAG”, for which the binding signal is 8860 fluorescence intensity (a.u.).
As to “AATAATTTTGTAATCGGTAGTTGTTTCCTTTTACAAACTCCGGAGTCACCTAGTGCAG”, the binding signal was 8600 fluorescence intensity (a.u.).
Regarding “GATCCGTTCCGTTCGTCCTTTGATCCTTTTCTATCTCTCCCGGAGTCACCTAGTGCAG”, the binding signal is 9940 fluorescence intensity (a.u.).
For the sequence “CGGGTGGATGTTGGGGATGATGCCGGTGTAGTTCATATAGCGGAGTCACCTAGTGCAG”, the binding signal is 9900 fluorescence intensity (a.u.).
For the sequence “CCATCGCCCTGACCTCATTCACCATGTTAGTGCAGCAACACGGAGTCACCTAGTGCAG”, the binding signal is 8050 fluorescence intensity (a.u.).
Turning to “GTGGGAGAGGCCGGCCGAGGGGAGGAGAGGGGAGGGGTGCCGGAGTCACCTAGTGCAG”, the binding signal was 10700 fluorescence intensity (a.u.).
For the sequence “GGGTACGACGCGCCGCGCGTCCGCTTTCCGATTCAGTTTTCGGAGTCACCTAGTGCAG”, the binding signal is 9520 fluorescence intensity (a.u.).
As for “TTAGCTCTTGTATACATTTGATCATCCTCTGTGGAGAAAACGGAGTCACCTAGTGCAG”, the figure is 8400 fluorescence intensity (a.u.); as for “TTTATGGCATGGTTCTCGGTTGACTAACTGGGCCGGCATTCGGAGTCACCTAGTGCAG”, 8940 fluorescence intensity (a.u.); as for “GCTATTATACCAGCTCTTATTTCATTTCATGTGCACGTTTCGGAGTCACCTAGTGCAG”, 13800 fluorescence intensity (a.u.).
As for “ATGTAATCTCTCCCGGCCCCACCTAATTTTTTCTGATGCTCGGAGTCACCTAGTGCAG”, the figure is 8060 fluorescence intensity (a.u.); as for “CTCTCTCTCTCTACCGTCTCGTCTCGCTTGCGTCGCGAGACGGAGTCACCTAGTGCAG”, 8210 fluorescence intensity (a.u.).
As to “GTTTGTGGTGATTTTGTTGATGAGTACTTCCCAGCCTTGACGGAGTCACCTAGTGCAG”, the binding signal was 9830 fluorescence intensity (a.u.).
For “CATGTTATTGAACAACCACTATATGTTTCTGAGTTGTGATCGGAGTCACCTAGTGCAG”, the binding signal was 8620 fluorescence intensity (a.u.).
As for “GCATGTGTTCGTTATGTGTGGTTGGAGATTTTCTCCCACACGGAGTCACCTAGTGCAG”, the figure is 8470 fluorescence intensity (a.u.); as for “AGAGTAACCCATCCGACCCTGTTTAATATCACTCCTTTGACGGAGTCACCTAGTGCAG”, 8220 fluorescence intensity (a.u.).
Consider “CTGTTGACTATCCATGCCATTTTTACCGATTAGTCTATCTCGGAGTCACCTAGTGCAG”, for which the binding signal is 13800 fluorescence intensity (a.u.).
As for “GGGCCTCGCCCACTTGTTCCTACGCCCCTTTCCGCGCGAGCGGAGTCACCTAGTGCAG”, the figure is 8170 fluorescence intensity (a.u.).
